The campaign covered roughly 320,000 compounds. About 22,000 (6.9%) were called active. This list was built around the results that the source calls inconclusive (neither active nor inactive); the mix of calls is not that of the screen. Calls follow the shape of the dose curve; as a rule, active = well fitted inhibition curve with a large enough effect; inconclusive = small, poorly fitted or top-dose-only effect, or another doubt; inactive = no such curve, though single readings can be large or run the other way. Potencies of inconclusive entries are doubtful fits and often do not repeat.
assay: Primary qHTS for delayed death inhibitors of the malarial parasite plastid, 96 hour incubation; settings: P. falciparum luciferase reporter growth; series mostly up to 28.7 µM
Outline: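 Luminescence readout: decreased luciferase signal marks inhibited growth of reporter-expressing P. falciparum in infected red cells (2% hematocrit, 0.05% parasitemia final), exposed to compound two generations (96 h, 37 C, 5% CO2).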
Potency is read from the fitted curve at half-maximal effect.

Structure (SMILES) | Potency
CC1(C)CC(=O)C2=C(C1)c1c(ccc3ccccc13)NC2c1ccc(OCC(=O)O)cc1 (stereo unspecified) | inactive
CC(=O)n1c(C=Nc2ccc(Cl)cc2)c(O)c2ccccc21 | inconclusive: 1.65 µM [inhibitor, full curve, poor fit]
COc1ccc(-c2nn(-c3ccccc3)cc2C(=O)N2CCOCC2)cc1 | inconclusive: 8.28 µM [inhibitor, partial curve]
COc1ccccc1C(=O)NC(=S)/C=C1/N(C)c2ccccc2C1(C)C | inconclusive: 16.5 µM [inhibitor, partial curve, poor fit]
CCOC(=O)Cc1csc(NC(=O)/C=C\c2ccccc2)n1 | inconclusive: 9.28 µM [inhibitor, partial curve, poor fit]
CCn1nc(CC(=O)Nc2nnc(CC(=O)N3CCCC3)s2)c2ccccc2c1=O | inactive
O=C(C1CCN(S(=O)(=O)Cc2ccccc2)CC1)N1CCN(c2ncccn2)CC1 | inconclusive: 10.4 µM [inhibitor, single point]
Cc1c(OCC(=O)NCC2CCC(C(=O)O)CC2)ccc2c3c(c(=O)oc12)CCC3 (stereo unspecified) | inconclusive: 18.5 µM [inhibitor, partial curve, poor fit]
COc1ccc(S(=O)(=O)N2CCN(C(=O)C3COc4ccccc4O3)CC2)cc1 (stereo unspecified) | inconclusive: 14.7 µM [inhibitor, partial curve, poor fit]
Cc1ccc(NC(=O)CSCC(=O)N2CCN(C(=O)c3ccco3)CC2)cc1 | inconclusive: 10.4 µM [inhibitor, partial curve, poor fit]
COc1ccc(-n2nc3cc(C)c(NC(=O)C(C)C)cc3n2)cc1 | inconclusive: 7.38 µM [inhibitor, partial curve, poor fit]
O=C(CN1C(=O)/C(=C\c2cccc(Br)c2)Oc2ccccc21)NCCCN1CCOCC1 | inconclusive: 6.57 µM [inhibitor, partial curve]
S=c1[nH]nc(-c2ccc(Cl)cc2Cl)n1-c1ccc(Cl)cc1 | inconclusive: 16.5 µM [inhibitor, single point]
O=C(NNc1ccccc1)Nc1ccccc1F | inactive
C=CCN1C(=O)/C(=c2\sc3nc(=O)c(Cc4ccccc4Cl)nn3c2=O)c2ccccc21 | inactive
CCc1nc(SC)[nH]c(=O)c1C | inconclusive: 5.86 µM [inhibitor, partial curve, poor fit]
Cc1ccc(-c2nnc3ccc(SCC(=O)NCc4ccco4)nn23)cc1 | inactive
C/C(=N\NC(=O)C1CC1)c1ccc(NC(=O)c2ccc(Br)o2)cc1 | inactive
Cc1ccc(NC(=O)CCOc2ccccc2C)cc1C | inactive
COc1ccc2c(CSc3nnc(-c4cccnc4)n3-c3ccccc3F)cc(=O)oc2c1 | active: 6.57 µM
Cc1ccc(NC(=O)CSc2nnc(C)n2C2CC2)cc1S(=O)(=O)N1CCOCC1 | inconclusive: 18.5 µM [inhibitor, single point]
Cc1nc(Nc2ccc(Cl)cc2)c2oc3ccccc3c2n1 | inconclusive: 10.4 µM [inhibitor, single point]
Cc1cccc(Nc2ccccc2C(=O)NCc2ccco2)c1C | inconclusive: 18.5 µM [inhibitor, single point]
Cn1c(=O)n(CC(=O)N2CCN(c3nnc(-c4ccccc4)c4ccccc34)CC2)c2ccccc21 | active: 13.1 µM

Structure (SMILES) | Potency
O=C(CSc1nnc(-c2ccc3c(c2)OCO3)o1)Nc1ncc(Cl)cc1Cl | inconclusive: 18.5 µM [inhibitor, single point]
CCOc1ccc(CCNC(=O)COC(=O)c2ccccc2O)cc1OCC | inconclusive: 14.7 µM [inhibitor, partial curve, poor fit]
Cc1cc(NC(=O)COc2ccccc2C)no1 | inactive
O=C1NC(=Nc2ccccc2)SC1(CO)CO | inconclusive: 2.62 µM [inhibitor, full curve, poor fit]
CCOC(=O)c1[nH]c2ccccc2c1NC(=O)C1CCCC1 | inactive
CCOC(=O)N1CCC(NC(=O)c2ccc3c(c2)N(C)CCS3)CC1 | inconclusive: 10.4 µM [inhibitor, single point]
COc1cccc(/C=C2\SC(=S)N(CCCC(=O)Nc3ccc(C(=O)O)cc3)C2=O)c1 | active: 8.28 µM
Cn1cnnc1SCC(=O)Nc1ccc2ccccc2c1 | inactive
CC1=CC(C)(C)N(C(=O)CSc2nncn2C)c2ccccc21 | inactive
C=CCn1c(C)c(C(C)=O)c(N2CCN(C(c3ccccc3)c3ccccc3)CC2)nc1=S | inconclusive: 14.7 µM [inhibitor, partial curve, poor fit]
CC1(C)CC(NCCN2CCN(C3=CC(=C(C#N)C#N)CC(C)(C)C3)CC2)=CC(=C(C#N)C#N)C1 | inconclusive: 4.15 µM [inhibitor, single point]
N#CC(C(=O)NCCc1ccccc1)c1nc2ccccc2nc1N1CCCCC1 (stereo unspecified) | inactive
O=C(OCC(=O)N1CCc2ccccc21)c1ccc([N+](=O)[O-])cc1 | inconclusive: 7.38 µM [inhibitor, partial curve, poor fit]
COc1ccc(N2CCC(CNC(=S)Nc3ccc(C)cc3C)C2)cc1 (stereo unspecified) | inconclusive: 2.08 µM [inhibitor, full curve]
COc1ccc(-c2ncncc2-c2ccc(OC)c(OC)c2)c(O)c1 | inactive
COc1cc(NC(=O)c2ccccc2)c(OC)cc1NC(=O)Cc1ccc(C)cc1 | inconclusive: 18.5 µM [inhibitor, single point]
CNC(=O)C1CCN(S(=O)(=O)c2c(C)noc2/C=C/c2cccc(C)c2)CC1 | active: 10.4 µM
CC1CCN(S(=O)(=O)c2ccc(Oc3ccc([N+](=O)[O-])cc3)cc2)CC1 | inactive
COCCNC(=O)C(c1ccc(F)cc1)N(Cc1cccs1)C(=O)CCC(=O)Nc1ccccn1 (stereo unspecified) | inactive
OCCC#Cc1c(-c2ccsc2)sc2ccccc12 | inconclusive: 18.5 µM [inhibitor, single point]
Cc1cc[n+](CCC(=O)O)c2ccccc12 | inconclusive: 0.131 µM [inhibitor, full curve, poor fit]
CC(C)N1CCN(Cc2cnc(-c3ccccc3)s2)CC1CCO (stereo unspecified) | inactive
Cc1cccc(C)c1NC(=O)C1=C(O)c2ccccc2N(C)S1(=O)=O | inactive
CC(=O)OCCNc1nc(-c2ccccc2)nc2ccccc12 | inactive

Some values from above:
Potency, `Cc1cccc(C)c1NC(=O)C1=C(O)c2ccccc2N(C)S1(=O)=O` is entered as inactive
Potency, `Cc1ccc(NC(=O)CCOc2ccccc2C)cc1C` is entered as inactive
Potency, `COCCNC(=O)C(c1ccc(F)cc1)N(Cc1cccs1)C(=O)CCC(=O)Nc1ccccn1` (stereo unspecified) is entered as inactive
Potency, `OCCC#Cc1c(-c2ccsc2)sc2ccccc12` is entered as inconclusive: 18.5 µM [inhibitor, single point]

Next part.

Structure (SMILES) | Potency
O=C(C1CC(c2ccc(F)cc2)=NO1)N1CCCCC1 (stereo unspecified) | inconclusive: 16.5 µM [inhibitor, single point]
Cc1cccc(OCCNC(=O)CCNS(=O)(=O)c2ccc3ccccc3c2)c1 | inactive
CCN(CC)c1nc(N)n(CCSC(=S)N(C)C)c(=O)n1 | inconclusive: 0.233 µM [inhibitor, full curve, poor fit]
O=C(Cc1n[nH]c(=O)c2ccccc12)Nc1cc(Cl)ccc1-n1cncn1 | inactive
CN(C)S(=O)(=O)n1cc(/C=C(\NC(=O)c2ccccc2)C(=O)NCCCn2ccnc2)c2ccccc21 | inconclusive: 13.1 µM [inhibitor, single point]
CCc1ccc(OCCCC(=O)Nc2ccc(S(=O)(=O)Nc3cc(C)nc(C)n3)cc2)cc1 | inactive
O=C(O)Cc1ccc(NC(=O)C(c2ccccc2)c2ccccc2)cc1 | inconclusive: 11.7 µM [inhibitor, single point]
C=CCN1C(=O)c2ccc(C(=O)Nc3ccccn3)cc2C1=O | inactive
C/C(CC(=O)Nc1cccc(C(F)(F)F)c1)=N\NC(=O)c1ccncc1 | inconclusive: 11.7 µM [inhibitor, partial curve]
COc1cc(-n2c(C)nc3cc(C(=O)NCC4CCCO4)ccc32)cc(OC)c1OC (stereo unspecified) | inconclusive: 8.28 µM [inhibitor, partial curve]
COc1ccc(Cc2nnc(NC(=O)Cc3cccs3)s2)cc1 | inconclusive: 18.5 µM [inhibitor, single point]
O=C(N/N=C/C(Cl)=C/c1ccccc1)c1cnccn1 | inconclusive: 18.5 µM [inhibitor, single point]
Cc1nc2ccc(S(=O)(=O)NCC(=O)Nc3ccc(F)cc3)cc2s1 | inconclusive: 1.47 µM [inhibitor, full curve]
Oc1cc(NCCc2cccnc2)cc2cccnc12 | active: 8.28 µM
O=C(Cc1n[nH]c(=O)[nH]c1=O)N/N=C/c1c(O)ccc2ccccc12 | inconclusive: 1.85 µM [inhibitor, partial curve, poor fit]
CCOC(=O)N1CCN(CC(=O)N2c3ccccc3CCc3ccccc32)CC1 | inconclusive: 11.7 µM [inhibitor, single point]
O=C(NCc1ccccc1)c1c(Cl)nc(Cl)c(Cl)c1Cl | inactive
Cc1ccc(OCCn2cnc3ccccc3c2=O)c([N+](=O)[O-])c1 | inconclusive: 10.4 µM [inhibitor, single point]
COC(=O)CCC(=O)c1ccn(S(=O)(=O)c2ccccc2)c1 | inconclusive: 4.65 µM [inhibitor, partial curve, poor fit]
CC1(C)CC(=O)C2=C(C1)NCN(Cc1ccc3c(c1)OCO3)C2 | inconclusive: 10.4 µM [inhibitor, single point]
COc1cccc(-n2nnc3c(=O)n(Cc4cccc(F)c4)cnc32)c1 | inconclusive: 2.33 µM [inhibitor, full curve]
Cc1ccc2[nH]cc(CCNC(=O)C3CCCO3)c2c1 (stereo unspecified) | inactive
COc1cc(/C=C/C(=O)N2CCN(c3ccccn3)CC2)cc(OC)c1OC | inconclusive: 11.7 µM [inhibitor, single point]

From PubChem BioAssay AID504834 (National Center for Advancing Translational Sciences (NCATS), 2011)
